Data published in article PMC10258794, “To Fold or Not to Fold: Diastereomeric Optimization of an α-Helical Antimicrobial Peptide” (Journal of Medicinal Chemistry, 2023).
These are yes or no findings as the source states them, for the method shown. Some results given as binding are weak or reduced against the parent protein; the word gives no strength.

Assays:
Test in all cases: crystal structure; co-crystallisation of the C-fucosylated peptide with LecB, sitting drop vapor diffusion, 18 °C; LecB 5 mg/mL in water with 6 mM CaCl2 and MgCl2; peptide at 5:1 molar excess over the LecB monomer; both purified
[1] = target: FHP31
[2] = target: bacterial lectin LecB (UniProt Q9HYN5)
[3] = target: FHP5
[4] = target: FHP8

Row | Binder | binding [1] | binding [2] | binding [3] | binding [4]
1 | KKLLKLLKLLL (α-L-fucosyl-acetyl on the N-terminus; D-Lys at 1; D-Leu at 11) [FHP5] | – | binds | binds | –
2 | KKLLKLLKLLL (α-L-fucosyl-acetyl on the N-terminus; D-Lys at 2; D-Leu at 3 and 4) [FHP8] | – | binds | – | binds

Other lines, results leading:

Row | binding [1] | binding [2] | binding [3] | binding [4] | Binder
3 | binds | binds | – | – | KKLLKLLKLLL (α-L-fucosyl-acetyl on the N-terminus; D-Lys at 1 and 5; D-Leu at 3, 7, 9 and 11) [FHP31]
4 | – | binds | – | – | KKLLKLLKLLL (α-L-fucosyl-acetyl on the N-terminus; D-Lys at 2 and 8; D-Leu at 4, 6 and 10) [FHP30]
